Variants at the background level are over-represented here.
B1: tRNA (parent)
chain: GUUCCGUUGGCGUAAUGGUAACGCGUCUCCCUCCUAAGGAGAAGACUGCGGGUUCGAGUCCCGUACGGAACG

Variants of: B1
Experiment: yeast fitness relative to wild type (ratio to wild type); higher = fitter; tRNA-Arg(CCU), competitive growth, 37 C, YPD
How it was run: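 Start and end populations of a pooled competition were compared by 100-nucleotide paired-end sequencing of gene amplicons. The Saccharomyces cerevisiae strains carried tRNA-Arg(CCU) gene variants at the native genomic locus, synthesised with a 3% per-site mutation rate at 69 sites, and competed in YPD at 37°C for 24 hours in six parallel replicates. Darwinian fitness relative to wild type was based on the change in genotype frequencies. Genotypes required ≥ 100 starting reads, and estimates < 0.5 were set to 0.5.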
In the case of GUUACGUUCGGGUAAUGGUAACGCGUCUCCCUCCUAAGGAGAAGACCGCGGGUUCGAGUCCCGUACGGAACG [C4A G9C C11G U47C], the yeast fitness is reported as at most 0.5. Variant GUUCCGUUGGCGUAAUGGUAACGCGUCUCCCAGCUAAGGAGAAGACUGCGGCUUCAAGUCCCGUACGGAACG [U32A C33G G52C G56A] has a yeast fitness of at most 0.5. Work on GUUCCGUUGGCGUAAUGGUAACGAGUCUCCCUCCUAAGGAGACGACUGCGGGUUCAAGUCCCGUACGGAACG [C24A A43C G56A] yielded a yeast fitness of at most 0.5. GUUCCGUUGGCGUAAUGGUAACGCGUCUCCCUCGUAAGGAGAAGACUCCGGGUUCGAGACCCGUACGGAACG [C34G G48C U59A] gave a yeast fitness of at most 0.5. With GGUCCGUUGGCGUAAUGGUGAAGCGUCUCCCUCCUAAGGCGAAGAGUAUGGGUUCGAGUCCCGUACGGCACG [U2G A20G C22A A40C C46G G48A C49U A69C] the yeast fitness was at most 0.5. Variant GUUCCGUUAACGUAAUGGUAACGAGUCUCCCUCCUAAGGAGAAAACUGCGGGUUCGAGUCCCGUACGGAACG [G9A G10A C24A G44A] has a yeast fitness of at most 0.5. Work on GUUCCCUUAGCGUAAUUGUAACGAGUCUCCCUCCUAAGGAGAAGCCUGCGGGUUCGAGUCCCGUACGGAACG [G6C G9A G17U C24A A45C] yielded a yeast fitness of at most 0.5. Variant GUUCCGCUGGCGUGAUGGUAACGCGUCUCCCUCCUAAGGAGAUGACUGGGGGUUCGAGUCCCGUACGGAACG [U7C A14G A43U C49G] has a yeast fitness of at most 0.5. Variant GUUCCGUUGGCGUAAUGGUAACGCGUCUCCCACCUAAGGAGAAGAUUGCGGCUUCGUGUCCCGUACGGAACG [U32A C46U G52C A57U] has a yeast fitness of at most 0.5. Variant GUUCCGUUGGCGUAGUGGUAACGCGUCUCCCUCCUAAGGAGAAAACUGCCGGUUCGAGUCCCGUACGGCACG [A15G G44A G50C A69C] has a yeast fitness of at most 0.5. With GUUCCGUUGACGUAUUGGUAACGCGUCUCCCUCCUGAGGAGAAGACGGCGGGUUCGAGUCCCGUUCGGAACG [G10A A15U A36G U47G A65U] the yeast fitness was at most 0.5. In the case of GUUCCGUUGGCGUAAUGGUACCGCGUCUCCCUCCUAAGGAGAAGACUGCGGCUUCGAGUCCCGUACGGAUCG [A21C G52C A70U], the yeast fitness is reported as at most 0.5. For GUUCUGUUGGAGUAAUGGUAGCGCGUCUCCCUCCUAAGGAGAAGACUGCGGGUUCGAGUCCCGUACGGAGCG [C5U C11A A21G A70G], the yeast fitness was at most 0.5. GUUCCGUUGGCGCAAUGGUAACGCGUCUCCCUCCUUAGGAGAAGCCUGGGGGUUCGAGUCCCGUACGGAACG [U13C A36U A45C C49G] gave a yeast fitness of at most 0.5. Work on GUUCCGUUGGCGUAAUGGUUACGCGUCUCCCUCCUAAGGUGAAGACUGCGGGUUCGAGACCCGUACGGAACG [A20U A40U U59A] yielded a yeast fitness of at most 0.5. GUCCUGUUGGCGUAAUGGUAACGCGUCUCCCUCCUAAGCAGAAGACUGCGGGUUCGAGUCCCGUACGGAACG [U3C C5U G39C] showed a yeast fitness of 0.57. In the case of GUUCCGUUGGGGUAAUGGUAACGCGUCUCCCUUCUAAGGAGAAGACUGCGGGUUCCAGUCCCAUACGGAACG [C11G C33U G56C G63A], the yeast fitness is reported as at most 0.5. GCUCCGUUGCCGUAAUGGUAACGCGUCUCCUUCCUAAGGAGAGGACUGCGGGUCCGAGUCCCGUACGGAACG [U2C G10C C31U A43G U54C] gave a yeast fitness of at most 0.5. In the case of GUUCGGUUGGCGUAAUGGUAACGCGUCUCCCUCCUAAAGAGAAGACUGCGGGUUCGAGUCCCGUACGGAACG [C5G G38A], the yeast fitness is reported as 0.729. For GUUCCGAUGGCGUAAUGGUAACGCGUCUCCCUCCUCAGGAGAAGACUGCGGGUUUGAGUCCCGUACGGAACG [U7A A36C C55U], the yeast fitness was at most 0.5. GUUCCGUUGGCGUAAUGGUAUCGCGUGCCUCUCCUAAGGAGAAGACUGCGGGGUCGAGUCACGUACGGAACG [A21U C27G U28C C30U U53G C61A] gave a yeast fitness of 0.78. Work on GUUCGGUUGGCGUAAUGGUGACGCGUCUCCCUCCUAAGGGGAAAACUGCGGGUUCGAGUCCCGUACGGAACG [C5G A20G A40G G44A] yielded a yeast fitness of at most 0.5. Variant GUUUCGUUGGCGUAACGGUAACGCGUCUCCCUCCUUAGGAGAAGACUGUGGGUUCGACUCCCGUAUGGAACG [C4U U16C A36U C49U G58C C66U] has a yeast fitness of at most 0.5. Variant GUUCCGUUGGCGUAAUGGCAACGUGUCUCCCCCCCACGGAGAAGGCUGCGGGUUCGCGUCCCGUACGGAACG [U19C C24U U32C U35C A37C A45G A57C] has a yeast fitness of at most 0.5. With GUUCCGUUGGAGUAAUGGUAAUGCGGCUCCCUCCUAAGGUGAAGACUCCGGGUUCGAGUCCCGUACGGAACG [C11A C22U U26G A40U G48C] the yeast fitness was 0.537. GUUCUGUUGGCGUAAUGGUCACGAGUCUCCCUCCUAAGGAGAAGACUGCGGGUUCGAGUGCCGUACGGAACG [C5U A20C C24A C60G] showed a yeast fitness of at most 0.5. Variant GUUCCGUUGGCGUAAAGGUAAAGGGUCUCCCUCCUAAGGAGAAGACUGCGGGUUCGAGUCCCGUACGGAACG [U16A C22A C24G] has a yeast fitness of at most 0.5. In the case of GUUCCGUUGGAGUAAUGGUAACGCGUGUCCCUCCCAAGGAGAAGACUGCAGGUUCGAGUCCCGUACGGAACG [C11A C27G U35C G50A], the yeast fitness is reported as at most 0.5. In the case of GUUCCGUUGGCGUCAUGGUUACGCCUCUCCCUCCUAAGGAGAAGACUGCGGGUUCGGGUCCCGUACGGAACG [A14C A20U G25C A57G], the yeast fitness is reported as at most 0.5. Variant GUUCCGUAGGCGUAAUGGUGACGCGUCUUCCUCCUAAGGAGAAGACUGCGCGUUCGAGUCCCGUACGGAACG [U8A A20G C29U G51C] has a yeast fitness of at most 0.5. GUUCCGUUGGCGUAUUGGUAACGCGUCUCCCUCCUAGGGAGAAGAUUGCGGGUUCGAGUACCGUACGGAACG [A15U A37G C46U C60A] gave a yeast fitness of at most 0.5. For GUUCCGUUGGCGUAAGGGUAACGCGUCUCCCUCCUUAGGAGAAGACUGCGGGUUCGAGUCCCGUACGGAACG [U16G A36U], the yeast fitness was 0.589. GUCCCGUUGGCGUUAUGGUAUCGCGUCUCCCUCCUAAGGAGAAGACUGCGGGUUCGAGUGCCGUACAGAACG [U3C A14U A21U C60G G67A] gave a yeast fitness of at most 0.5. With GUUACGUUGGCGUAAUGGUAACGCGUCUCCCUCCUAAGGAGAAGACUGCGGAAUCGAGUCCCGUACUGAACG [C4A G52A U53A G67U] the yeast fitness was at most 0.5. Work on GUUCCGUUGGCGUAAUGGUAAUGCGUCUCCCACCUAAGGAAAAGACUGCGGGUUGGAGUCCCGUACGGAACG [C22U U32A G41A C55G] yielded a yeast fitness of at most 0.5. With GUUCCGUUGGCGUAAUGGUAUCGCGUCUCCCUCGUAAGGAGAAGACUGGGGGUUCGAGUCUCGUACGGGACG [A21U C34G C49G C61U A69G] the yeast fitness was at most 0.5. GUUCAGCUGGCGUAAUGGUAACGCGUCUUCCUCCUAAGGAGAAGACUGCGGGUUCGAGUCCCGUAUGGAACG [C5A U7C C29U C66U] gave a yeast fitness of at most 0.5.

Source: the RNAGym collection of RNA variant scans (doi:10.1126/science.aae0568)
